Experimental data published in paper PMC9481976.
Where two headings read alike, the source gives them in different places. No constants are given. Whether binding was seen depends on the method and setting. Binding seen in cells or lysates may run through a third protein. A yes stands for co-enrichment or nearness to the bait. Other partners may have been found. Sequences can lack the tags named with a protein. Blank lines part the entries; values can stand above or below the molecule they belong to.

Amino acid sequences for entries named in this document (tags omitted).
UniProt Q9Y5B8: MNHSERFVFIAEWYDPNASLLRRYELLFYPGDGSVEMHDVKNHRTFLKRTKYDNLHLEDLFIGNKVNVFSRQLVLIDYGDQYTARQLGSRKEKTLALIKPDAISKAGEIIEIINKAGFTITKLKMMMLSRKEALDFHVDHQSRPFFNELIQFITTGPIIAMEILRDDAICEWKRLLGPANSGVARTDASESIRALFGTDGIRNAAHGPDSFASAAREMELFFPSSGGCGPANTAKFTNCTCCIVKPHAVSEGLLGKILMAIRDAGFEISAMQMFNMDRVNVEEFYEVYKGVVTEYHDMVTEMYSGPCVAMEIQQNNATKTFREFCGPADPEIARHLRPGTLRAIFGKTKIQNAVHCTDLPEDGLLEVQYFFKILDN
UniProt O15078: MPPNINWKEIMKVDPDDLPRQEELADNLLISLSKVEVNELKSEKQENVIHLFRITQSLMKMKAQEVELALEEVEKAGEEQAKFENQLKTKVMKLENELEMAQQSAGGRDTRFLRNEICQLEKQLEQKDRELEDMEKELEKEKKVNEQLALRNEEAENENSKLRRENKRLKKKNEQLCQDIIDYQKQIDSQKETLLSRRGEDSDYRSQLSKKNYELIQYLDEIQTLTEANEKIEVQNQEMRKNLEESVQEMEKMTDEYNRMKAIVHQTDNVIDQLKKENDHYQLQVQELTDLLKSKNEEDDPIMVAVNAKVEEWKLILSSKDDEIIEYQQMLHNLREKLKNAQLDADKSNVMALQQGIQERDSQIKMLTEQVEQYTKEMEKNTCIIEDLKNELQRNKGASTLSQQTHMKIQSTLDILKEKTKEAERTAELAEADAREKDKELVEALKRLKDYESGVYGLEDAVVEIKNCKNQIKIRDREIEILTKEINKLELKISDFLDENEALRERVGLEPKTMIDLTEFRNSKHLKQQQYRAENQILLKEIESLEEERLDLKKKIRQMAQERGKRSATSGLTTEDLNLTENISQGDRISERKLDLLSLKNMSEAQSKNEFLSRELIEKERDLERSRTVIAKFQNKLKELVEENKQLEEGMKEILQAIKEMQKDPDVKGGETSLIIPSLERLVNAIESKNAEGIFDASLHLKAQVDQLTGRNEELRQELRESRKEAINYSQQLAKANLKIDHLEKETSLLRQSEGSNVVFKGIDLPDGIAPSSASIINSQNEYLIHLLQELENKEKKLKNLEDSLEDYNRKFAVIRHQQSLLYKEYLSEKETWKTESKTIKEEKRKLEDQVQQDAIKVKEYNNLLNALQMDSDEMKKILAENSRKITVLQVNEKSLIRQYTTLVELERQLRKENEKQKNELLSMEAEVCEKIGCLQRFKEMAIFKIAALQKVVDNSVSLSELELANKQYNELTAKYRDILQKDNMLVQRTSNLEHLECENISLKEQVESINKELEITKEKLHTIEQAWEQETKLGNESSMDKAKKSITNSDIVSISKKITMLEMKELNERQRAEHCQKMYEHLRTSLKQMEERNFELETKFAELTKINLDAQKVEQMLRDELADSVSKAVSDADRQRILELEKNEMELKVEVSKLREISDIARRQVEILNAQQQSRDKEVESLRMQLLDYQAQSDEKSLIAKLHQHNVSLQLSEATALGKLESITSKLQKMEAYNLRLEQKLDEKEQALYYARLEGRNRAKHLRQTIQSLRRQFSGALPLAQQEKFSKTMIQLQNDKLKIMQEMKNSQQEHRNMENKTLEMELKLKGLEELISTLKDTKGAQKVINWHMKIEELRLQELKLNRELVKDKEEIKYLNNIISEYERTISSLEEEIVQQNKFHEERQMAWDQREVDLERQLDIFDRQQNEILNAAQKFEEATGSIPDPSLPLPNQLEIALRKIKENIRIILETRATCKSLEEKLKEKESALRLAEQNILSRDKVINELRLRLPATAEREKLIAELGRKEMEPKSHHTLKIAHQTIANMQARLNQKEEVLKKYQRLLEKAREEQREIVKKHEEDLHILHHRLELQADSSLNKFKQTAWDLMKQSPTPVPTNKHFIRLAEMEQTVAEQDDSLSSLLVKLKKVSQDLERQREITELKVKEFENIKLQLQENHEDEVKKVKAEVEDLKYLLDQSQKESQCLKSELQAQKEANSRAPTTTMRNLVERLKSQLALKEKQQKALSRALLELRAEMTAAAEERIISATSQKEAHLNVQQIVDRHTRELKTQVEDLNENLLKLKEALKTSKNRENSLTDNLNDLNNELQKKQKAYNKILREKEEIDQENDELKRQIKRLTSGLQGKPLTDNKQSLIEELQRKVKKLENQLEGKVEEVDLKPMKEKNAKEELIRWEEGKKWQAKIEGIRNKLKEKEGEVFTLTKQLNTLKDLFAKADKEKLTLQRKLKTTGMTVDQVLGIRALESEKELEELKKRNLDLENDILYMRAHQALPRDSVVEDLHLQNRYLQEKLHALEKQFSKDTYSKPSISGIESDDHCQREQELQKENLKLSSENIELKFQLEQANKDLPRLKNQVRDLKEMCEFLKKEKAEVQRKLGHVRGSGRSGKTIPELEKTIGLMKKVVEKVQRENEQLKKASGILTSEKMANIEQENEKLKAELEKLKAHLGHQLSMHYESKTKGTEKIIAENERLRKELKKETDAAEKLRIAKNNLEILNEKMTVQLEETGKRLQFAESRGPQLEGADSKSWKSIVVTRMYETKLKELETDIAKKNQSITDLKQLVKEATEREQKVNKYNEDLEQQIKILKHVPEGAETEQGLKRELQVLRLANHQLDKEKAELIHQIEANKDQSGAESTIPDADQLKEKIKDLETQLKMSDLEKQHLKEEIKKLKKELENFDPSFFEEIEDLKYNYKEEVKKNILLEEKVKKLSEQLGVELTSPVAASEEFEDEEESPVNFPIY
UniProt Q96SN8: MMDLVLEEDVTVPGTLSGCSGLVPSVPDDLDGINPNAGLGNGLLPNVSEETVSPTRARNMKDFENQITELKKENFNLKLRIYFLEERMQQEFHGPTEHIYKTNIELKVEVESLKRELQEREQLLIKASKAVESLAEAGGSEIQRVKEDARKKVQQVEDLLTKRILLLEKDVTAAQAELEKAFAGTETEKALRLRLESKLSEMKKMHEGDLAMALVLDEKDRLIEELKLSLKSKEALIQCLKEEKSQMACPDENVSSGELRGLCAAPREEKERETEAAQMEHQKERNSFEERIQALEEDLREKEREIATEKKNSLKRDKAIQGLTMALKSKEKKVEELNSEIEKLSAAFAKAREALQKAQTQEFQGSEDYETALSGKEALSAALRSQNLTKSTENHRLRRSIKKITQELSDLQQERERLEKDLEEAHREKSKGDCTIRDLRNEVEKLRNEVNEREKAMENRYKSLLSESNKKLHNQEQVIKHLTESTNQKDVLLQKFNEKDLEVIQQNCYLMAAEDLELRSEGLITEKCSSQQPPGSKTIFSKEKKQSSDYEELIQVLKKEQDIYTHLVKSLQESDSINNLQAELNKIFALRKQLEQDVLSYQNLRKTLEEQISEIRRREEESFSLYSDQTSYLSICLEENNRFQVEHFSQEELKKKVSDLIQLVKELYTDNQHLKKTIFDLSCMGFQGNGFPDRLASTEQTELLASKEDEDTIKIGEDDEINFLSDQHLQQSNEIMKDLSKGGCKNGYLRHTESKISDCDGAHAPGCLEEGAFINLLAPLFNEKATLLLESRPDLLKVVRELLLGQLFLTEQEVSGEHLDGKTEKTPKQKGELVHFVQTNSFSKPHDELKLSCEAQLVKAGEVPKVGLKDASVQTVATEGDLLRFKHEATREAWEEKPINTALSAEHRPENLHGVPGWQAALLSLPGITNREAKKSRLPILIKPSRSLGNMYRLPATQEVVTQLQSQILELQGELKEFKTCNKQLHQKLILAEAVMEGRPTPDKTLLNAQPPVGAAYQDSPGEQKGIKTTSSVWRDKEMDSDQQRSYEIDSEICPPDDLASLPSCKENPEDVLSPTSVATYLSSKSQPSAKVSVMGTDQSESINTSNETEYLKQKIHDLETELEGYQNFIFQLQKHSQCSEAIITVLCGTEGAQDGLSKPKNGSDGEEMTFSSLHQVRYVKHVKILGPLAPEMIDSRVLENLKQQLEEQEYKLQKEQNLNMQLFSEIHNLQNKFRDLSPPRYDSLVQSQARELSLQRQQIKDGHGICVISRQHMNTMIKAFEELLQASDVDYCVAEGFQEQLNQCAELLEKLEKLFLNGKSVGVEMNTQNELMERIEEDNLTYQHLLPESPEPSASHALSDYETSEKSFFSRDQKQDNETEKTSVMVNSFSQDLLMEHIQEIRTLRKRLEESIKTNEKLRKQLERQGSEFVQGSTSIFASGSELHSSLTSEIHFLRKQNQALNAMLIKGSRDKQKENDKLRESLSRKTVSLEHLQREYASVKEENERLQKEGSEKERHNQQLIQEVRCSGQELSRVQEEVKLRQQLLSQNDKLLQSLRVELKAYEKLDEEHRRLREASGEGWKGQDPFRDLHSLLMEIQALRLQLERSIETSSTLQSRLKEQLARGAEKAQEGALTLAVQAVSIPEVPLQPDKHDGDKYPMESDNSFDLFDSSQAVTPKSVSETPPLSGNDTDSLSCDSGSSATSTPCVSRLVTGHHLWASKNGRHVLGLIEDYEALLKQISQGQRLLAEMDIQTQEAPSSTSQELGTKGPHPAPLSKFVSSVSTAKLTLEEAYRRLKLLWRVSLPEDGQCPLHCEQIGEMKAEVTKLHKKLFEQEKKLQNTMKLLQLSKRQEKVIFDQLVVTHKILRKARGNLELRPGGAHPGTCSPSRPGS
UniProt Q96RT7: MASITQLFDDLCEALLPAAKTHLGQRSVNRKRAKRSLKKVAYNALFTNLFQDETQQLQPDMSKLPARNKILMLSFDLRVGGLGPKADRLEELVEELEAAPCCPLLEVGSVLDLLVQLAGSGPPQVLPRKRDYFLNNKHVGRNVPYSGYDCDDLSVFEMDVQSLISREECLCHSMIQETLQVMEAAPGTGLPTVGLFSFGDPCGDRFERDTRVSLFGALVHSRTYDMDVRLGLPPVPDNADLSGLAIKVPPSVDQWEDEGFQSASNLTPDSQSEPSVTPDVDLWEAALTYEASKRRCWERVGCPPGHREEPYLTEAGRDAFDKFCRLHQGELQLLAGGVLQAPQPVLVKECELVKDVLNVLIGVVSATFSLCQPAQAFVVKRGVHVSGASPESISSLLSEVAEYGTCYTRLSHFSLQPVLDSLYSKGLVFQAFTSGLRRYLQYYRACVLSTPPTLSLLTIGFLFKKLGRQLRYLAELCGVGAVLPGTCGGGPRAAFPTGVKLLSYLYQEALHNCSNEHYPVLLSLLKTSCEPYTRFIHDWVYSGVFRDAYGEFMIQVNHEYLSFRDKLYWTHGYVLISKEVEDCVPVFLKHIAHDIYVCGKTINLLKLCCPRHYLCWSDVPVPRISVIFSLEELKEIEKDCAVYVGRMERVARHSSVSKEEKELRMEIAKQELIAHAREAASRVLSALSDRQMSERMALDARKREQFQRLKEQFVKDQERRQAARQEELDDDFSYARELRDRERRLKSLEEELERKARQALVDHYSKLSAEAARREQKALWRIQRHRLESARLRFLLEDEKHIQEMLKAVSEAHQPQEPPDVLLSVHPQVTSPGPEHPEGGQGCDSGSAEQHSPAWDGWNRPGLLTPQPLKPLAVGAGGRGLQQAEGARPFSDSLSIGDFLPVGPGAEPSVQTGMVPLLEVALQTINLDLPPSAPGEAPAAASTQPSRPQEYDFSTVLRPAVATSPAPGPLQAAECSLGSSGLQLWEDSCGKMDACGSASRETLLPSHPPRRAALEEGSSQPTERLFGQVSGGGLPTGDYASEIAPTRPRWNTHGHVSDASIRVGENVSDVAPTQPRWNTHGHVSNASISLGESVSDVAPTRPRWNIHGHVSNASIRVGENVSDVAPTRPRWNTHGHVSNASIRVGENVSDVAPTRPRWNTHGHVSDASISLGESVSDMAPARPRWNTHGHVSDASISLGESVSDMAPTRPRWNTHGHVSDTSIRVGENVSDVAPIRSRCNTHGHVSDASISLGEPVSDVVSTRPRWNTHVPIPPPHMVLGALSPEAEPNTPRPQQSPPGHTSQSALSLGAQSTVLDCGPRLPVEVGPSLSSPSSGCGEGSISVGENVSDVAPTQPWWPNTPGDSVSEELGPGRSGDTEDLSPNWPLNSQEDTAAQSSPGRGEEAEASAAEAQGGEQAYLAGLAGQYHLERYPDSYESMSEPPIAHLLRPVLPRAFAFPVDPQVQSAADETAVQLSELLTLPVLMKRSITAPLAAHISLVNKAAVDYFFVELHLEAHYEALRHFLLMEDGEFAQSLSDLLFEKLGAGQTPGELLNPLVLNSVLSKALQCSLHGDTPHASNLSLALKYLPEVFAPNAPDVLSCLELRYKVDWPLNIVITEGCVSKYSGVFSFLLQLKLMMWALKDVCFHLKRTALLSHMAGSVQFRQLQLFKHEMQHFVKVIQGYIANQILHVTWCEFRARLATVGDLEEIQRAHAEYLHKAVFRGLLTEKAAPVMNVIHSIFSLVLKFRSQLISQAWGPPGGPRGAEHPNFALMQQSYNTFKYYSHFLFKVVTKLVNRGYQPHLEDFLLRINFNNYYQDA

Columns and labels:
Test in all cases: affinity purification with mass spectrometry; streptavidin pull-down (M-280 Streptavidin Dynabeads) of biotinylated GFP-tagged CFAP53 co-expressed with BirA from HEK293T lysates; lysis in 20 mM Tris pH 7.5, 150 mM NaCl, 1 mM MgCl2, 1% Triton X-100; 120 min at 4°C; five washes with 20 mM Tris pH 7.5, 150 mM NaCl, 0.1% Triton X-100; BirA alone as negative control; MS scores of both baits combined, hits filtered by SAINT and fold change
[1] = target: T1, CFAP53-bioGFP (human CFAP53 with C-terminal biotinylated GFP) (human) (UniProt Q96M91)
T1 sequence (chain, biotin on the BirA substrate linker (biotin ligase BirA co-expressed)): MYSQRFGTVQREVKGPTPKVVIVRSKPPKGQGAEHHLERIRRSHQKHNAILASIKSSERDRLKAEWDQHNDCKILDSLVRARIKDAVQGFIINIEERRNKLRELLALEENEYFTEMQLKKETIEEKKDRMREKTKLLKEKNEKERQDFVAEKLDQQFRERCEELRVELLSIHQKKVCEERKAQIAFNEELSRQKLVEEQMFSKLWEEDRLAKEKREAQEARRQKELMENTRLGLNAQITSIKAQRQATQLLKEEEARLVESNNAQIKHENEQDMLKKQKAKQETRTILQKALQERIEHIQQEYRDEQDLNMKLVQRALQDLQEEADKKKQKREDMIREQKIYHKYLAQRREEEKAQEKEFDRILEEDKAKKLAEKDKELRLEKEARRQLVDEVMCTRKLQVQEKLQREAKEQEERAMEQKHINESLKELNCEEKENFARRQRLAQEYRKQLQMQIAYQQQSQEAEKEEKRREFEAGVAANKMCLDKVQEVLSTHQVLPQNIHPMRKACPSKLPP

[2] = target: T2, bioGFP-CFAP53 (human CFAP53 with N-terminal biotinylated GFP) (human) (UniProt Q96M91)
T2 sequence (chain, biotin on the BirA substrate linker (biotin ligase BirA co-expressed)): T1 sequence (chain, biotin on the BirA substrate linker (biotin ligase BirA co-expressed))

[3] = target: T1, CFAP53-bioGFP (human CFAP53 with C-terminal biotinylated GFP) (human); remark: listed apart in the source
[4] = target: T2, bioGFP-CFAP53 (human CFAP53 with N-terminal biotinylated GFP) (human); remark: listed apart in the source

binding [1]: binds | binding [2]: binds
Molecule: kinase NME7 (from UniProt Q9Y5B8 1-376)

binding [1]: binds | binding [2]: binds
Molecule: CEP290 (from UniProt O15078 1-2479)

binding [1]: binds | binding [2]: binds
Molecule: PCM1 (from UniProt Q15154 1-2024)

binding [1]: binds | binding [2]: binds
Molecule: CDK5RAP2 (from UniProt Q96SN8 1-1893)

binding [1]: binds | binding [2]: binds
Molecule: GPC6 (from UniProt Q96RT7 1-1819)

binding [1]: binds | binding [2]: binds
Molecule: γ-tubulin (TUBG1) (from UniProt P23258 1-451)

binding [1]: binds | binding [2]: binds
Molecule: NIN (from UniProt Q8N4C6 1-2090)

binding [3]: binds | binding [4]: binds
B1: HAUS4 (protein, UniProt Q9H6D7 1-363)
chain: MASGDFCSPGEGMEILQQVCSKQLPPCNLSKEDLLQNPYFSKLLLNLSQHVDESGLSLTLAKEQAQAWKEVRLHKTTWLRSEILHRVIQELLVDYYVKIQDTNVTSEDKKFHETLEQRLLVTELMRLLGPSQEREIPPLLGLEKADLLELMPLSEDFVWMRARLQQEVEEQLKKKCFTLLCYYDPNSDADSETVKAAKVWKLAEVLVGEQQQCQDAKSQQKEQMLLLEKKSAAYSQVLLRCLTLLQRLLQEHRLKTQSELDRINAQYLEVKCGAMILKLRMEELKILSDTYTVEKVEVHRLIRDRLEGAIHLQEQDMENSRQVLNSYEVLGEEFDRLVKEYTVLKQATENKRWALQEFSKVYR

binding [3]: binds | binding [4]: binds
B2: CEP131 (protein, UniProt Q9UPN4 1-1083)
chain: MKGTRAIGSVPERSPAGVDLSLTGLPPPVSRRPGSAATTKPIVRSVSVVTGSEQKRKVLEATGPGGSQAINNLRRSNSTTQVSQPRSGSPRPTEPTDFLMLFEGSPSGKKRPASLSTAPSEKGATWNVLDDQPRGFTLPSNARSSSALDSPAGPRRKECTVALAPNFTANNRSNKGAVGNCVTTMVHNRYTPSERAPPLKSSNQTAPSLNNIIKAATCEGSESSGFGKLPKNVSSATHSARNNTGGSTGLPRRKEVTEEEAERFIHQVNQATVTIQRWYRHQVQRRGAGAARLEHLLQAKREEQRQRSGEGTLLDLHQQKEAARRKAREEKARQARRAAIQELQQKRALRAQKASTAERGPPENPRETRVPGMRQPAQELSPTPGGTAHQALKANNTGGGLPAAGPGDRCLPTSDSSPEPQQPPEDRTQDVLAQDAAGDNLEMMAPSRGSAKSRGPLEELLHTLQLLEKEPDVLPRPRTHHRGRYAWASEVTTEDDASSLTADNLEKFGKLSAFPEPPEDGTLLSEAKLQSIMSFLDEMEKSGQDQLDSQQEGWVPEAGPGPLELGSEVSTSVMRLKLEVEEKKQAMLLLQRALAQQRDLTARRVKETEKALSRQLQRQREHYEATIQRHLAFIDQLIEDKKVLSEKCEAVVAELKQEDQRCTERVAQAQAQHELEIKKLKELMSATEKARREKWISEKTKKIKEVTVRGLEPEIQKLIARHKQEVRRLKSLHEAELLQSDERASQRCLRQAEELREQLEREKEALGQQERERARQRFQQHLEQEQWALQQQRQRLYSEVAEERERLGQQAARQRAELEELRQQLEESSSALTRALRAEFEKGREEQERRHQMELNTLKQQLELERQAWEAGRTRKEEAWLLNREQELREEIRKGRDKEIELVIHRLEADMALAKEESEKAAESRIKRLRDKYEAELSELEQSERKLQERCSELKGQLGEAEGENLRLQGLVRQKERALEDAQAVNEQLSSERSNLAQVIRQEFEDRLAASEEETRQAKAELATLQARQQLELEEVHRRVKTALARKEEAVSSLRTQHEAAVKRADHLEELLEQHRRPTPSTK

binding [3]: binds | binding [4]: binds
B3: HAUS1 (protein, UniProt Q96CS2 1-278)
chain: MEPQEERETQVAAWLKKIFGDHPIPQYEVNPRTTEILHHLSERNRVRDRDVYLVIEDLKQKASEYESEAKYLQDLLMESVNFSPANLSSTGSRYLNALVDSAVALETKDTSLASFIPAVNDLTSDLFRTKSKSEEIKIELEKLEKNLTATLVLEKCLQEDVKKAELHLSTERAKVDNRRQNMDFLKAKSEEFRFGIKAAEEQLSARGMDASLSHQSLVALSEKLARLKQQTIPLKKKLESYLDLMPNPSLAQVKIEEAKRELDSIEAELTRRVDMMEL
